Paper PMC12040169 (PLOS Biology, 2025)
This is one part of the list.

What follows are compounds tested on T1, CTL2-GFP (C. trachomatis L2/434/Bu, GFP-expressing). Conditions: bulk GFP, single well; 28.5 h, 10 µM; inhibitor.
T1 construct: L2/434/Bu, GFP-expressing
Set-up: species or system HeLa; Intracellular C. trachomatis growth in HeLa cells, bulk GFP fluorescence relative to DMSO

Compound	% of control remaining [%]
c1ccc(Cn2cncc2-c2cncn2CCCN2CCCCC2)cc1 [CBK281490]	118.783
O=C1N[C@@H]2CCN(CC(=O)N3CCCC3)C[C@@H]2CCCCCOc2ccccc21 [CBK292141]	152.674
COc1cc(/C=N/NC(=O)c2n[nH]c3c2CCC3)ccc1O [CBK262881]	124.304
Cc1cc(C)n(CCCC(=O)N2CC3(CCNCC3)CC2C(=O)O)n1 (stereo not drawn) [CBK307174]	129.633
COc1ccc(CCC(C)N2CCN(c3ccc(F)cc3)CC2)cc1 (stereo not drawn) [CBK261922]	105.563
CCNc1cccnc1N1CCN(C(=O)CCC(=O)c2ccc(NS(C)(=O)=O)cc2)CC1 [CBK010701]	124.698
CC(=O)Nc1ccc(Nc2cc(-c3ccsc3)ncn2)cc1 [CBK090717]	109.651
CCOC(=O)Cc1csc(NS(=O)(=O)c2ccc(Br)cc2C)n1 [CBK200027]	120.94
Cc1nn(C)c(O)c1Cc1c(F)cccc1Cl [CBK067759]	120.743
O=c1cc(N2CCOCC2)oc2ccccc12 [CBK008244G]	113.378
Cc1cc2c(cc3c(=O)n(CC(=O)N4CCCC4)nc(C)n32)o1 [CBK283631]	125.704
OCCOCCNc1ncnc2sc(-c3ccccc3)cc12 [CBK265951]	102.29
CC(=O)N1CCCc2cc(C(O)CN(C)Cc3ccccc3)ccc21 (stereo not drawn) [CBK282149]	137.66
CCCn1nc(COc2cccc(F)c2)nc1C1CCN(C(C)=O)CC1 [CBK306637]	143.814
Cc1ccc(N2C(=O)CSC23C(=O)Nc2ccccc23)cc1Br (stereo not drawn) [CBK093472]	87.0655
O=C(O)c1cccc(NC(=S)NC(=O)C(c2ccccc2)c2ccccc2)c1 [CBK265053]	111.508
Cc1nnc2c(=O)n(CC(=O)N3CCN(C(C)C)CC3)c3cccnc3n12 [CBK288601]	107.839
Cc1cccc(=O)n1CCCn1cc(C2CCOC2)nn1 (stereo not drawn) [CBK307368]	93.8524
CCOC(=O)CN1C(=O)N2CCCN=C2c2ccc(Cl)cc21 [CBK284401]	95.2734
O=C(O)CNS(=O)(=O)c1cc(Br)c(Cl)s1 [CBK034455]	112.431
Cc1ccc(C(=O)Nc2ncn(CC(=O)N3CCCCCC3)n2)s1 [CBK304951]	111.216
CN1CCN(CCCNC(=O)N2CCCC(CO)C2)CC1 (stereo not drawn) [CBK156029]	100
CNc1ncc(CN(C)C(=O)Cn2nc(C)c3ccccc3c2=O)cn1 [CBK307704]	111.349
O=C1CCC(N2CCN(c3ncnc4ccccc34)CC2)CCN1 (stereo not drawn) [CBK304393]	160.761
Cc1nc(-c2ccc(S(=O)(=O)N3CCC(Cc4ccccc4)CC3)cc2)cs1 [CBK265494]	96.4447
Nc1ccc(-c2nnn(CC(=O)NC3CCCCC3)n2)cc1 [CBK135771]	100

Compound	% of control remaining [%]
O=C(CO)N1CC2(CCN(CCn3cccc3)CC2)c2ccccc21 [CBK143953]	129.29
CC(=O)N1CCc2cc(C(O)CN3CCN(c4nsc5ccccc45)CC3)ccc21 (stereo not drawn) [CBK283092]	51.917
CCc1c(C(=O)N(C)Cc2cnn(C(C)C)c2)[nH]c2ccccc12 [CBK307501]	104.189
Cc1cc(C)cc(-c2ccc(CC3(C(=O)NCC4CCCOC4)CCOCC3)cc2)c1 (stereo not drawn) [CBK286524]	113.45
CCOC(=O)CC(=O)COc1noc2nc(C)cc(C)c12 [CBK269595]	111.921
O=C1COc2ccccc2C/C=C/CC2(CCN(C(=O)Cn3cccn3)CC2)C(=O)NCCN1 [CBK292003]	88.9116
CN(C)CCN(C)c1nc(-c2ccc3c(c2)OCO3)cn2ccnc12 [CBK066381]	98.9315
Oc1ccc(Br)cc1CN1CCN(Cc2cccc3ccccc23)CC1 [CBK263662]	126.976
Cn1c(=O)n(C)c2cc(CNCc3cccnc3)ccc21 [CBK268432C]	151.458
O=C(CSc1nnc(-c2cccnc2)o1)c1ccc(Oc2ccccc2)cc1 [CBK266327]	224.499
CCNC(=O)c1cc2c(=O)n3ccccc3nc2n(C)c1=N [CBK287762]	120.692
CN(CC1CC1)C(=O)Cn1cnc2c(F)cc(Br)cc2c1=O [CBK305227]	110.054
Cc1noc(C)c1CC(=O)N1CCC2(C/C=C/C[C@H]3COCC[C@@H]3NC(=O)CNC2=O)CC1 [CBK292071]	124.588
COc1ccc([C@H](NC(=O)C2CCN(C(=O)OCc3ccccc3)CC2)c2ccccc2C)cn1 [CBK084639]	102.351
O=S(=O)(Cc1cccc(C(F)(F)F)c1)c1csc2ccnc(N3CCNCC3)c12 [CBK039166C]	136.378
CN1Cc2nc[nH]c2C[C@H]1C(=O)NCc1ccco1 [CBK288979]	110.953
C[C@@H](Nc1nc(-c2cccc(-c3ccccc3)c2)cnc1N)c1ccccc1 [CBK063704]	182.382
O=C1c2ccc(Oc3ccc(Oc4ccc5c(c4)C(=O)N(c4cccnc4)C5=O)cc3)cc2C(=O)N1c1cccnc1 [CBK262195]	107.836
CC(C(=O)O)N(c1ccc(Cl)cc1)S(C)(=O)=O (stereo not drawn) [CBK267945]	84.4054
COc1ccc(F)cc1-c1ccc(S(=O)(=O)Nc2nc(CC(=O)N3CCOCC3)cs2)cc1 [CBK200031]	118.33
CCNS(=O)(=O)c1ccc(NC(=O)c2nc3nc(C)cc(C(F)F)n3n2)cc1 [CBK266146]	189.29
Cc1nc2ccc(Cl)cn2c1CN1CCN(C2CCCC2)C(=O)C1 [CBK281452]	101.137
O=C(CSc1nc2ccccc2[nH]1)Nc1cccc(NC(=O)C23CC4CC(CC(C4)C2)C3)c1 [CBK265702]	116.351
Cc1cccn2c(=O)cc(CN3CCc4nn(C)c(=O)cc4C3)nc12 [CBK305514]	106.265
O=C1Nc2ccc(-c3ccsc3)cc2C(=O)N2CC[C@H](NC(=O)N3CCOCC3)[C@@H]12 [CBK289338]	123.311
CC(C)NC(=O)N1CCc2sccc2C1c1ccc(Cl)cc1 (stereo not drawn) [CBK018247]	95.3599

Compound	% of control remaining [%]
O=C(c1cn(-c2cc(Nc3ccccc3)ncn2)cn1)N1CCOCC1 [CBK288610]	126.324
Cc1ccc(C(=O)Nc2ccc3c(c2)OCO3)c(N2CCOCC2)n1 [CBK076377]	150.723
CCCOc1ccc(Cc2nc(N(C)C)cc(N(C)C)n2)cc1 [CBK008318]	138.078
COc1cc(CNc2nc(O)cc(C(F)(F)F)n2)cc(OC)c1OC [CBK002390]	111.409
COC(=O)C1Cc2cc3c(cc2C(c2cc(OC)c(OC)c(OC)c2)N1)OCO3 (stereo not drawn) [CBK200104T]	135.192
NC(=O)c1cccc(-c2nc(-c3ccc(F)cc3F)cnc2N)c1 [CBK064109]	134.36
CN(C)C(=O)Cn1cccc2cc(-c3ccc(F)cc3)nc1-2 [CBK285349]	131.266
O=C(c1ccccc1)N1CCC(c2nnc(-c3ccsc3)o2)CC1 [CBK283371]	135.71
O=c1c2cc(F)ccc2nc2n1CCN(Cc1ccsc1)CC2 [CBK284860]	100.691
Cc1ccc(C(=O)N2CCC(C(=O)NC(c3ccccc3)c3ccsc3)CC2)cc1 (stereo not drawn) [CBK060154]	115.863
COc1ccc(OC)c(S(=O)(=O)n2ccc3c(N4CCNCC4)nccc32)c1 [CBK059067C]	113.667
COc1ccc(-c2nc(-c3ccncc3)ncc2C(=O)NCc2ccncc2)cc1 [CBK291112]	141.014
CCC(C(=O)O)N1C(=O)NC2C1N(C)C(=O)N2C (stereo not drawn) [CBK287039]	126.54
O=C(O)Cc1ccc(Oc2ncc(C(F)(F)F)cc2Cl)cc1 [CBK161657]	138.212
O=C(Nc1cccc(Cl)c1)c1nnc(C(=O)NC2CCCCC2)s1 [CBK294406]	151.179
Cc1cccnc1C1(O)CCN(C(=O)Cc2ccccc2Cl)CC1 [CBK283682]	145.42
CSc1nc2c(cc1C#N)CCC2 [CBK026532]	113.36
CC(=O)N1CCc2c([nH]c3ccccc23)C1CNCc1ccc(F)cc1 (stereo not drawn) [CBK066968]	197.3
O=C(Nc1ccccc1)[C@H]1CN2CCC1C[C@@H]2Cn1cc(C2(O)CCCC2)nn1 (stereo partly drawn) [CBK289091]	116.065
COc1ccc(NC(=O)CC(C(=O)O)N2CCOCC2)cc1 (stereo not drawn) [CBK266955]	129.626
CSc1nnc(CCCNC(=O)c2cccc(C#N)c2)n1CC(C)C [CBK306023]	118.278
CC(=O)Nc1c(-c2ccc(C)cc2)c(=O)c2ccccc2n1C [CBK287775]	139.987
CCOc1ncccc1C(=O)N(Cc1nnc(-c2ccc(Cl)cc2)o1)C1CC1 [CBK296934]	137.612
COc1ccc(-n2c(CNCc3ccc4c(c3)OCO4)nc3ccccc3c2=O)cc1 [CBK074522]	81.3032
O=c1cc(Nc2ccc3c(c2)OCO3)[nH]c(=O)n1-c1ccc(Cl)cc1 [CBK287507]	152.403
Cc1ccn(CCC(=O)N2CCC3(C/C=C/C[C@H]4COCC[C@@H]4NC(=O)CNC3=O)CC2)n1 [CBK292070]	143.875

A few values from the entries so far:
Value for Cc1ccn(CCC(=O)N2CCC3(C/C=C/C[C@H]4COCC[C@@H]4NC(=O)CNC3=O)CC2)n1 [CBK292070] under % of control remaining [%]: 143.875
Value for CC(=O)N1CCc2c([nH]c3ccccc23)C1CNCc1ccc(F)cc1 (stereo not drawn) [CBK066968] under % of control remaining [%]: 197.3
Value for CCOc1ncccc1C(=O)N(Cc1nnc(-c2ccc(Cl)cc2)o1)C1CC1 [CBK296934] under % of control remaining [%]: 137.612
Value for O=C(Nc1ccccc1)[C@H]1CN2CCC1C[C@@H]2Cn1cc(C2(O)CCCC2)nn1 (stereo partly drawn) [CBK289091] under % of control remaining [%]: 116.065
